Experimental data from the supplement of paper PMC10689618.
Structures can show the parent of a compound that is named as a salt. ± gives the standard deviation of the averaged measurements. This is one part of the list. Single values are uncertain, as repeats are few or missing.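 Labelled rat cortical synaptosomes were engulfed by primary human fetal astrocytes. Engulfment equaled a red/green ratio, corrected for calcein live-cell signal and normalized to the plate median. Compounds were toxic when calcein dropped over 30%, and reduced phagocytosis when below 70% of the median above 5 µM.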

Experiments:
[1] = system: Human fetal astrocytes; assay: loss of total cells relative to no-compound high-control median (toxicity); higher = more toxic (fewer cells); conditions: 24 h
[2] = system: Human fetal astrocytes; assay: synaptosome phagocytosis (pHrodo/calcein intensity ratio) relative to plate median of data wells; higher = more phagocytosis; conditions: 24 h

Row | SMILES | loss of total cells ([1]; 1.39 µM) | loss of total cells ([1]; 2.78 µM) | loss of total cells ([1]; 5.56 µM) | loss of total cells ([1]; 11.11 µM) | loss of total cells ([1]; 22.22 µM) | synaptosome phagocytosis ([2]; 1.39 µM) | synaptosome phagocytosis ([2]; 2.78 µM) | synaptosome phagocytosis ([2]; 5.56 µM) | synaptosome phagocytosis ([2]; 11.11 µM) | synaptosome phagocytosis ([2]; 22.22 µM)
1 | O=C1C(SCCO)=C(SCCO)C(=O)c2ccccc21 | 5.4% | -9.4% | 5.8% | -4% | 8.8% | 92.2% | 71% | 111% | 62.5% | 91.2%
2 | OC[C@H]1O[C@@H](n2cnc3c(N[C@H]4CC5CCC4C5)ncnc32)[C@H](O)[C@@H]1O (stereo not given in full) | 0.4% | -15.4% | -1.6% | -10.3% | -4% | 114% | 108% | 88.3% | 140% | 118%
3 | N=c1ccn2c(n1)O[C@H]1[C@H](O)[C@@H](CO)O[C@H]12 [Ancitabine hydrochloride] | -11% | -13.8% | -25.3% | -24.7% | -3.4% | 94.8% | 115% | 105% | 118% | 94.1%
4 | CCCCCCCCCCCCCCC[C@H](O)[C@H](N)CO (racemic) [DL-erythro-Dihydrosphingosine] | 13.8% | -20.5% | 13.2% | -16.6% | 19.2% | 110% | 78.9% | 79.2% | 115% | 99.2%
5 | COc1ccc(NC(=O)c2ccc(-c3ccc(-c4noc(C)n4)cc3C)cc2)cc1N1CCN(C)CC1 | -20.4% | 1.4% | 4.2% | 25.7% | 28% | 82.3% | 93.3% | 75% | 72.6% | 40%
6 | CC(=O)NCCc1ccc(O)c(O)c1 [N-Acetyldopamine monohydrate] | 0% | -9.6% | -6.9% | -12.1% | 13.2% | 124% | 118% | 90.6% | 113% | 86.8%
7 | COc1cc(/C=C(\C#N)C(=O)c2ccc(O)c(O)c2)cc(I)c1O [I-OMe-Tyrphostin AG 538] | -11.5% | -15.9% | 2.2% | -24.9% | 0.8% | 95.3% | 111% | 116% | 126% | 108%
8 | CCCC1O[C@@H]2C[C@H]3[C@@H]4CCC5=CC(=O)C=C[C@]5(C)[C@H]4[C@@H](O)C[C@]3(C)[C@]2(C(=O)CO)O1 (stereo not given in full) [Budesonide] | -17.2% | -7.2% | -15.2% | -11.2% | -8.6% | 86.9% | 101% | 105% | 121% | 91.4%
9 | OC[C@H]1NC[C@H](O)[C@@H](O)[C@@H]1O [1-Deoxynojirimycin hydrochloride] | -3.6 ± 12% | -4.15 ± 2.6% | 14.8 ± 22% | 17.6 ± 7.4% | 6 ± 7.3% | 104 ± 19% | 129 ± 16% | 115 ± 16% | 112 ± 11% | 125 ± 18%
10 | N#CC(C#N)=C(N)/C(C#N)=C/c1cc(O)c(O)c(O)c1 [Tyrphostin 51] | 5.3% | -23.7% | 1.7% | 1.9% | -1.6% | 87.4% | 105% | 83.9% | 90.5% | 124%
11 | N[C@@H](CC(=O)O)C(=O)O [L-Aspartic acid] | -12.1% | -11.4% | -17.1% | -13% | 4.9% | 69.2% | 115% | 108% | 117% | 110%
12 | Nc1ccc(N2C(=O)c3ccccc3C2=O)c(Cl)c1 [N-(4-Amino-2-chlorophenyl)phthalimide] | -4% | -5.4% | -11.5% | 6.7% | -4.9% | 101% | 99.4% | 120% | 122% | 76.2%
13 | CCCCCCCC/C=C\CCCCCCCC(=O)NCCc1ccc(O)c(O)c1 [N-Oleoyldopamine] | -1.6% | 16.5% | 40.4% | 75.5% | 73.3% | 94.1% | 87.8% | 110% | 79.9% | 21.8%
14 | CC(=O)[C@]1(O)Cc2c(O)c3c(c(O)c2[C@@H](O[C@H]2C[C@H](N)[C@H](O)[C@H](C)O2)C1)C(=O)c1ccccc1C3=O [Idarubicin] | -15.5% | -34.2% | 0.8% | 2.2% | 7.2% | 102% | 92.3% | 96.6% | 188% | 230%
15 | CNc1ncnc2c1ncn2[C@H]1C[C@H](OP(=O)(O)O)[C@@H](COP(=O)(O)O)O1 | 10% | -5.9% | 14.6% | 17.1% | 12.1% | 140% | 96.9% | 92.7% | 110% | 132%
16 | O=C1NCN(c2ccccc2)C12CCN(CCCC(c1ccc(F)cc1)c1ccc(F)cc1)CC2 [Fluspirilene] | 8.8% | 0.9% | 11.5% | -8.5% | 0% | 81% | 92.7% | 70.6% | 79.2% | 99.4%
17 | Nc1nc(SCc2ccc([N+](=O)[O-])cc2)c2ncn([C@@H]3O[C@H](CO)[C@H](O)C3O)c2n1 (stereo partly drawn) [S-(4-Nitrobenzyl)-6-thioguanosine] | -1.5% | -4.2% | 3.2% | -7.6% | 9.4% | 120% | 108% | 91.5% | 100% | 121%
18 | CN(C)CC/C=C1/c2ccccc2Sc2ccc(Cl)cc21 [Chlorprothixene hydrochloride] | -21.7% | -15.3% | 1.4% | -6.7% | 10.9% | 65.2% | 57.7% | 75.3% | 80.7% | 93.4%
19 | N=C1Sc2ccccc2C2=NCCCN12 | -0.5% | 6.8% | 8% | 19% | 13.1% | 104% | 102% | 69.2% | 87.6% | 61.8%
20 | Cc1c(CC(C)(C)C(=O)O)n(Cc2ccc(Cl)cc2)c2ccc(F)cc12 | -7.1% | 14.9% | 14.6% | 7.6% | 3.7% | 94.1% | 115% | 115% | 94.6% | 87.7%

In another format: results already given
Row	SMILES	loss of total cells ([1]; 1.39 µM)	loss of total cells ([1]; 2.78 µM)	loss of total cells ([1]; 5.56 µM)	loss of total cells ([1]; 11.11 µM)	loss of total cells ([1]; 22.22 µM)	synaptosome phagocytosis ([2]; 1.39 µM)	synaptosome phagocytosis ([2]; 2.78 µM)	synaptosome phagocytosis ([2]; 5.56 µM)	synaptosome phagocytosis ([2]; 11.11 µM)	synaptosome phagocytosis ([2]; 22.22 µM)
10	N#CC(C#N)=C(N)/C(C#N)=C/c1cc(O)c(O)c(O)c1 [Tyrphostin 51]	5.3%	-23.7%	1.7%	1.9%	-1.6%	87.4%	105%	83.9%	90.5%	124%
11	N[C@@H](CC(=O)O)C(=O)O [L-Aspartic acid]	-12.1%	-11.4%	-17.1%	-13%	4.9%	69.2%	115%	108%	117%	110%

Remaining list, next part

Row | SMILES | loss of total cells ([1]; 1.39 µM) | loss of total cells ([1]; 2.78 µM) | loss of total cells ([1]; 5.56 µM) | loss of total cells ([1]; 11.11 µM) | loss of total cells ([1]; 22.22 µM) | synaptosome phagocytosis ([2]; 1.39 µM) | synaptosome phagocytosis ([2]; 2.78 µM) | synaptosome phagocytosis ([2]; 5.56 µM) | synaptosome phagocytosis ([2]; 11.11 µM) | synaptosome phagocytosis ([2]; 22.22 µM)
21 | OC[C@H]1O[C@@H](n2cnc3c(NC4CCCC4)ncnc32)[C@H](O)[C@@H]1O [N6-Cyclopentyladenosine] | -29% | -9.6% | -29% | -24.7% | -4.1% | 85.8% | 92.3% | 98% | 103% | 95.5%
22 | COc1ccc(-c2ccc(=N)n(CCCC(=O)O)n2)cc1 | -3.4% | -26.6% | -3.9% | -5.7% | -10.7% | 115% | 116% | 119% | 106% | 111%
23 | CN(C)c1ccc(/C=C2/C(=O)Nc3ccccc32)cc1 | -3.4% | -9.3% | 4.5% | 1.9% | 15.6% | 121% | 107% | 95.5% | 83.6% | 76.1%
24 | NC(N)=NCCNS(=O)(=O)c1cccc2cnccc12 [HA-1004 hydrochloride] | -3.8% | -26.5% | -5.8% | -12.1% | -29.6% | 101% | 90.6% | 112% | 122% | 86.5%
25 | Oc1ccc(Cn2cc[nH]c2=S)cc1 [1-(4-Hydroxybenzyl)imidazole-2-thiol] | -5.4% | -15.4% | -17.3% | -19.3% | -15.2% | 119% | 135% | 108% | 134% | 120%
26 | NC1CCN(O)C1=O (racemic) | 1.5% | -7.5% | -6.9% | -4% | -2.6% | 90.3% | 90.7% | 118% | 106% | 68.1%
27 | C[C@@H](N)[C@H]1CC[C@H](C(=O)Nc2ccncc2)CC1 | -13.8% | -22.2% | 16.5% | -10.3% | -25.6% | 102% | 88.4% | 74.5% | 46.1% | 66%
28 | NC1CCN(c2cccc(Cl)n2)CC1 | -13.4% | -20.1% | -17.4% | -8.8% | -12.3% | 88.5% | 92.1% | 101% | 115% | 125%
29 | C[C@H]1O[C@@H](n2cc(F)c(=O)[nH]c2=O)[C@H](O)[C@@H]1O [5-fluoro-5'-deoxyuridine] | 2.1% | -12.8% | -4.1% | 4.9% | 3.2% | 104% | 122% | 102% | 115% | 143%
30 | CN(CCOc1ccc(C[C@H](Nc2ccccc2C(=O)c2ccccc2)C(=O)O)cc1)c1ccccn1 | 9.6% | -24.8% | 0% | -19.3% | -20% | 90.5% | 136% | 137% | 124% | 102%
31 | CCCCNc1c(C(=O)OCC)c(C)nc2c1cnn2CC [Tracazolate] | -26.4% | -24.9% | -10.7% | -6.5% | 0.8% | 118% | 88.7% | 121% | 119% | 108%
32 | NS(=O)(=O)c1cccc2c1c([N+](=O)[O-])cc1nc(O)c(O)nc12 [NBQX disodium] | -7.1% | 6.8% | 17.4% | 8.6% | 6.5% | 107% | 83.9% | 104% | 105% | 96%
33 | O=C1NC(=O)C(c2ccccc2)(c2ccccc2)N1 [5,5-Diphenylhydantoin] | -13.8% | -15.4% | 3.3% | 4.9% | -2.4% | 130% | 105% | 131% | 122% | 126%
34 | CCCCCCCCCCCCCCCC(=O)OC(CC(=O)O)C[N+](C)(C)C (racemic) [Palmitoyl-DL-Carnitine chloride] | -8.1% | -5% | -5.2% | 15.2% | 16.8% | 101% | 84.9% | 74.4% | 86.3% | 78.7%
35 | C[C@](N)(Cc1ccc(O)cc1)C(=O)O [L-alpha-Methyl-p-tyrosine] | -15.6% | 13.1% | 11.7% | 1.9% | -6.5% | 138% | 112% | 94.6% | 125% | 143%
36 | Cn1ccc2cc(NC(=O)Nc3cccnc3)ccc21 | -23.9% | -5.1% | -5.1% | 1.3% | -11.7% | 77.7% | 76.6% | 103% | 98.9% | 98.9%
37 | C[C@@H](Oc1ccc(Oc2cnc3ccc(Cl)cc3n2)cc1)C(=O)O | -12.1% | -11.7% | -2.2% | -23.4% | -22.2% | 104% | 99.9% | 104% | 109% | 133%
38 | COc1cc(-c2ccc(=O)[nH]n2)ccc1OC(F)F [Zardaverine] | -20.2% | -6.3% | -2.8% | -18.8% | -34.6% | 99% | 90.6% | 109% | 128% | 109%
39 | N#C/C(=C\c1ccc(O)c(O)c1)C(=O)NCCCNC(=O)/C(C#N)=C/c1ccc(O)c(O)c1 [Tyrphostin AG 537] | -17.1% | -29% | -18% | -20.3% | -28.8% | 102% | 97.5% | 105% | 119% | 98.8%
